Data from doi:10.1101/2020.07.09.194761.
These are yes or no findings as the source states them, for the method shown. For part of these data: Binding seen in cells or lysates may run through a third protein. Some results given as binding are weak or reduced against the parent protein; the word gives no strength. Blank lines part the entries; values can stand above or below the substance they belong to.

By UniProt entry, the sequences of proteins in these tests, tags left out.
UniProt Q96SN8: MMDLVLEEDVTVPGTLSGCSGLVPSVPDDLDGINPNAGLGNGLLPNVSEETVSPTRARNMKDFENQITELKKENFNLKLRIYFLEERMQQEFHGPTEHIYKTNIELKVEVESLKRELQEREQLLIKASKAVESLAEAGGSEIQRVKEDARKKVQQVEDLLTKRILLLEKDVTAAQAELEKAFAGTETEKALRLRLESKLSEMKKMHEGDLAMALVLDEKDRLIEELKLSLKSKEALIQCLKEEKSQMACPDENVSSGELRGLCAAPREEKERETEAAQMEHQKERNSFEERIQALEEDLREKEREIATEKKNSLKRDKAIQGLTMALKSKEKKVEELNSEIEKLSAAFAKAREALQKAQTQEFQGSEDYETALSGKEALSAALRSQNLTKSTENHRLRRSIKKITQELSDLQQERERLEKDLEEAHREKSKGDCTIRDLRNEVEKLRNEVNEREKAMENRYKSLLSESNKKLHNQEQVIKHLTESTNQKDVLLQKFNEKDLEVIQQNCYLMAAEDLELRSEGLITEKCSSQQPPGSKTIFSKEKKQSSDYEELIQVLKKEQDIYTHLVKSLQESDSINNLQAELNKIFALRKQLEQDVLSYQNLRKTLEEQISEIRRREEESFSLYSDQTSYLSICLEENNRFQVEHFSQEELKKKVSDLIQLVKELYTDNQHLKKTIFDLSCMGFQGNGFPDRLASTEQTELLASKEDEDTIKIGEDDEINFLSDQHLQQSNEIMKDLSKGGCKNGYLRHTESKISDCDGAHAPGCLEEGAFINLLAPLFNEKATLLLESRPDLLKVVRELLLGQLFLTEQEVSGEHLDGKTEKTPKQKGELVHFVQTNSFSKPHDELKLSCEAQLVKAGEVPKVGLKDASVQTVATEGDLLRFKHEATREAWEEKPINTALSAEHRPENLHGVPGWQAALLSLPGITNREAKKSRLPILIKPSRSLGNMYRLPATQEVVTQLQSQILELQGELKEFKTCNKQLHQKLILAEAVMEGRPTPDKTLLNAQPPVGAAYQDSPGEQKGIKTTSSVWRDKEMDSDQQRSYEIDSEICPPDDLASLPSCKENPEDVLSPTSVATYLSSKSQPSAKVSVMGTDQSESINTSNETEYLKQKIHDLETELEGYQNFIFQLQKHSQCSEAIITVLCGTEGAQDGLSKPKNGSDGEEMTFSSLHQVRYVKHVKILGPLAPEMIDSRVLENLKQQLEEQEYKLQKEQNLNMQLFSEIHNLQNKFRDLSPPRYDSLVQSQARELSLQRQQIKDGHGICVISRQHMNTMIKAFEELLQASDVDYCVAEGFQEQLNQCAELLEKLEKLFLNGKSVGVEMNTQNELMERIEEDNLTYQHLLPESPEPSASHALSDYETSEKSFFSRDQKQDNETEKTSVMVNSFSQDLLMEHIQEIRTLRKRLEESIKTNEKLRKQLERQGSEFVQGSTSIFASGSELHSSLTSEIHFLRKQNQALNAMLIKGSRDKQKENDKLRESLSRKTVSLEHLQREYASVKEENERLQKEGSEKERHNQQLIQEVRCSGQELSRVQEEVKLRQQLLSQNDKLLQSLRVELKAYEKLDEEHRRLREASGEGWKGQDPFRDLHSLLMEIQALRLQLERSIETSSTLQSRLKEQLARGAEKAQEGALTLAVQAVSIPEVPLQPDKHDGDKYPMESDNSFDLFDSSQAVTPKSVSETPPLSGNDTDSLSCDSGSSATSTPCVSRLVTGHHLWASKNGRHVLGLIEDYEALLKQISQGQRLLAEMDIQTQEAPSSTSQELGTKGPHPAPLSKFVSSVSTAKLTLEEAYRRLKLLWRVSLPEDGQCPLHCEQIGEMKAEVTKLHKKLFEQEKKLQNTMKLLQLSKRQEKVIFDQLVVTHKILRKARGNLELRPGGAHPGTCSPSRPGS
UniProt P49841: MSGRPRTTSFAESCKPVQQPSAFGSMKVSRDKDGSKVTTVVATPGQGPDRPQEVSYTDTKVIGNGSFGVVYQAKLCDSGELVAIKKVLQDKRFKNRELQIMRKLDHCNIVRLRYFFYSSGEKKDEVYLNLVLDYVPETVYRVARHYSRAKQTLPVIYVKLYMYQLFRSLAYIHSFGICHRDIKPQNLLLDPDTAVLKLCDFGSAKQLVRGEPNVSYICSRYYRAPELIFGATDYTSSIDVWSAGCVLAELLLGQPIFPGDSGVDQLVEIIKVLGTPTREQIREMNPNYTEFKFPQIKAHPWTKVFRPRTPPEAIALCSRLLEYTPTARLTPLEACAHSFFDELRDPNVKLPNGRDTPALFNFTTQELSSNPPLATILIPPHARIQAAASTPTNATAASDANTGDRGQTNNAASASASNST

Columns and labels:
Myc-tagged Cdk5rap2 = Myc-tagged Cdk5rap2 (UniProt Q96SN8); experiment: co-IP
GST-Cdk5rap2 = GST-Cdk5rap2 (UniProt Q96SN8); experiment: pull-down
FLAG-tagged GSK3β = FLAG-tagged GSK3β (UniProt P49841); experiment: co-IP

binding (Myc-tagged Cdk5rap2): binds
Substance: FLAG-tagged GSK3β (from UniProt P49841 1-420) (enzyme)

binding (GST-Cdk5rap2): binds
Substance: GSK3β protein (14-306) (from UniProt P49841 1-420) (enzyme)

binding (FLAG-tagged GSK3β): binds
Substance: Myc-tagged Cdk5rap2 (from UniProt Q96SN8 1-1893)
